Experiment [1] deals with T1, endogenously-tagged B55^SUR-6 with the GFP and the FLAG tag (C. elegans) (UniProt G5EDR3).
T1 sequence: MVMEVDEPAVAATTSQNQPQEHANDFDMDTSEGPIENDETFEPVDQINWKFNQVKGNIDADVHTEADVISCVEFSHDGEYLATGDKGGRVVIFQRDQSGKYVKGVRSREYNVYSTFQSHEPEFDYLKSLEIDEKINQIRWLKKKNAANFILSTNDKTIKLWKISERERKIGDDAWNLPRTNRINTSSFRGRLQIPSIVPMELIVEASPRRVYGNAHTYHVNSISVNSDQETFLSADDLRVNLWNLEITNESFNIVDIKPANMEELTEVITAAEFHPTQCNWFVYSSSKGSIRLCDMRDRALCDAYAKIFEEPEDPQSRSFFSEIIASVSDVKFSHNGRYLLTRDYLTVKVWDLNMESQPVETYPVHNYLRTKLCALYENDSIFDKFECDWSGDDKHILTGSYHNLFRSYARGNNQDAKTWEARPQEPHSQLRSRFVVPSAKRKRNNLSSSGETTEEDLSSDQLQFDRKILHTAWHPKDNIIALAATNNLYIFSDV
As to the kind of experiment: co-IP.

Protein sequences, listed by entry. Tags and fused reporters are not part of them.
UniProt G5EGK8: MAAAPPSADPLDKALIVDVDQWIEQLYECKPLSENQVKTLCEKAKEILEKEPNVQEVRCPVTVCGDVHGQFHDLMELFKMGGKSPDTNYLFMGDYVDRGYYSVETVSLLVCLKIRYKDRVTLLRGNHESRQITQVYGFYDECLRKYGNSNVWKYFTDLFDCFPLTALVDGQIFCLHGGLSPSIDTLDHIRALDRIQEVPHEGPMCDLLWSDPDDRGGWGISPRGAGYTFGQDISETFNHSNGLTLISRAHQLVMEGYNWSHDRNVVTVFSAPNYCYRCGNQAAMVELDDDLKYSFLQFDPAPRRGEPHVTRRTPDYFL

Experiment [2] deals with T1, endogenously-tagged B55^SUR-6 with the GFP and the FLAG tag (C. elegans). Nature of the experiment: co-IP. This is another data set of the same source.

Like-named read-outs stand apart in the source and are kept apart here. Results are given in words; binding and its absence hold for the method and conditions named. Binding seen in cells or lysates may run through a third protein. Some entries that bind do so weakly or less than the wild type. Sequences can lack the tags named with a protein.

For “PP2A catalytical subunit LET-92 (from UniProt G5EGK8 1-318) (enzyme)”, the binding result in experiment [1] is on record as “binds”.

B1: Glutathione S-transferase (GST)-tag LMN-1, recombinant full-length (protein, UniProt Q21443 1-566)
chain: MSSRKGTRSSRIVTLERSANSSLSNNGGGDDSFGSTLLETSRLQEKDHLTSLNSRLATYIDKVRQLEQENNRLQVQIRDIEVVEKKEKSNLADRFEAEKARLRRALDSAQDELAKYRIEYDAAKVEVKKLKPQVEKLERELAGAEEQALHAQSIADQSQAKQKTLQARNDKLVVENDDLKKQNITLRDTVEGLKKAVEDETLLRTAANNKIKALEEDLAFALQQHKGELEEVRHKRQVDMTTYAKQINDEYQSKLQDQIEEMRAQFKNNLHQNKTAFEDAYKNKLNAARERQEEAVSEAIHLRARVRDLETSSSGNASLIERLRSELDTLKRSFQEKLDDKDARIAELNQEIERMMSEFHDLLDVKIQLDAELKTYQALLEGEEERLNLTQEAPQNTSVHHVSFSSGGASAQRGVKRRRVVDVNGEDQDIDYLNRRSKLNKETVGPVGIDEVDEEGKWVRVANNSEEEQSIGGYKLVVKAGNKEASFQFSSRMKLAPHASATVWSADAGAVHHPPEVYVMKKQQWPIGDNPSARLEDSEGDTVSSITVEFSESSDPSDPADRCSIM
For B1, the binding entry in experiment [2] was “binds”.

B2: GST-tagged tail domain (386-566 aa) of LMN-1 (domain or fragment, UniProt Q21443 386-566)
chain: RLNLTQEAPQNTSVHHVSFSSGGASAQRGVKRRRVVDVNGEDQDIDYLNRRSKLNKETVGPVGIDEVDEEGKWVRVANNSEEEQSIGGYKLVVKAGNKEASFQFSSRMKLAPHASATVWSADAGAVHHPPEVYVMKKQQWPIGDNPSARLEDSEGDTVSSITVEFSESSDPSDPADRCSIM
Take B2: the binding entry in experiment [2] is listed as “binds”.

Source of the values: paper doi:10.1101/2023.06.11.544482.
